Measurements published in PubChem BioAssay AID330 (DTP/NCI, 2004).
The list is a part of this screen's results and no random one: it gathers tests that were run many times, whatever their T/C, doses with no T/C, and many T/C values between a quarter and a half above the control. Further doses and runs are listed elsewhere. T/C: endpoint of the treated group in % of that of the vehicle group. Some entries give survivors of the animals treated and no T/C: the source files T/C as zero there, which appears to mark a toxic dose or a test without result, not a measured value. Some survivor counts are full or nearly so, which does not show that the dose was tolerated: survival well below the control is almost never listed, so the zero probably covers shortened survival too. Counts of survivors are from the toxicity check (mostly the fifth day) where no day follows; animals may have died later. Schedule codes are those of the source, read here as Q, the interval in days (D) or hours (H), X, the number of doses. Some doses were run more than once; the results are listed from low to high. For survival time, the PubChem record calls one and a half times the control and up active, and a quarter to a half above the control has no call in these data; cut-offs in other NCI protocols can differ. Some T/C values are followed by the survivors on the day toxicity was checked, most often the fifth; where none is given, no animal had died by that day. Additions like (4×) stand for listed records that agree.

Test system: P388 leukemia ip, CD2F1 mice, survival T/C
Experiment: NCI In Vivo Anticancer Drug Screen. Data for tumor model P388 Leukemia (intraperitoneal) in CD2F1 (CDF1) mice
Conditions: T/C endpoint: median survival time, higher T/C = longer survival
[1] = dose: 50.0 mg/kg/injection, schedule: Q01DX001 (ip), vehicle: saline with Tween-80
[2] = dose: 50.0 mg/kg/injection, schedule: Q01DX009 (ip), vehicle: saline with Tween-80
[3] = dose: 50.0 mg/kg/injection, schedule: Q04DX002 (ip), vehicle: saline with Tween-80
[4] = dose: 50.0 mg/kg/injection, schedule: Q04DX003 (ip), vehicle: saline with Tween-80
[5] = dose: 100.0 mg/kg/injection, schedule: Q01DX001 (ip), vehicle: saline with Tween-80
[6] = dose: 100.0 mg/kg/injection, schedule: Q01DX009 (ip), vehicle: saline with Tween-80
[7] = dose: 100.0 mg/kg/injection, schedule: Q04DX003 (ip), vehicle: saline with Tween-80
[8] = dose: 200.0 mg/kg/injection, schedule: Q01DX001 (ip), vehicle: saline with Tween-80
[9] = dose: 200.0 mg/kg/injection, schedule: Q01DX005 (ip), vehicle: saline with Tween-80
[10] = dose: 200.0 mg/kg/injection, schedule: Q01DX009 (ip), vehicle: saline with Tween-80
[11] = dose: 200.0 mg/kg/injection, schedule: Q04DX002 (ip), vehicle: saline with Tween-80
[12] = dose: 200.0 mg/kg/injection, schedule: Q04DX003 (ip), vehicle: saline with Tween-80
[13] = dose: 400.0 mg/kg/injection, schedule: Q01DX001 (ip), vehicle: saline with Tween-80
[14] = dose: 400.0 mg/kg/injection, schedule: Q01DX005 (ip), vehicle: saline with Tween-80
[15] = dose: 400.0 mg/kg/injection, schedule: Q01DX009 (ip), vehicle: saline with Tween-80
[16] = dose: 400.0 mg/kg/injection, schedule: Q04DX002 (ip), vehicle: saline with Tween-80
[17] = dose: 400.0 mg/kg/injection, schedule: Q04DX003 (ip), vehicle: saline with Tween-80

What does the source list for CC/C(=C(/CC)c1ccc(O)cc1)c1ccc(O)cc1?
T/C [1]: 90, 91, 92 (2×), 92 [2 of 3 alive], 95 (2×), 96, 97 (4×), 98 (3×), 99, 100, 100 [5 of 6 alive], 101, 102, 103, 104, 105 (3×), 109 (2×), 110 (2×), 111 % of control; survivor count [1]: 3 of 3 and 6 of 6; T/C (dose: 50.0 mg/kg/injection, schedule: Q01DX005 (ip), vehicle: saline with Tween-80): 87, 90 [5 of 6 alive], 91, 93 (2×), 94, 97, 98 (2×), 99 (2×), 100 (4×), 101 (2×), 103, 104 (2×), 105 (2×), 106, 107 (2×), 108, 109 (2×), 110, 111, 115, 117 (2×), 121, 122, 129 % of control; T/C [2]: 91, 92, 95, 97, 98 (3×), 99 (3×), 101, 102 (2×), 105 (3×), 106, 107, 108 (2×), 111 (2×), 112, 113, 114, 116, 117, 119, 124, 128, 131 % of control; survivor count [2]: 3 of 3 and 6 of 6; T/C [3]: 87, 88, 92 (2×), 93, 94, 95 (3×), 99 (3×), 100 (7×), 101, 102 (2×), 103 (2×), 104, 105, 106 (3×), 107, 108, 112, 114, 118 % of control; survivor count [3]: 6 of 6; T/C [4]: 86, 89, 90, 91 (2×), 94 (2×), 95, 96 (2×), 97 (2×), 98, 99 (4×), 100 (6×), 101 (2×), 101 [5 of 6 alive], 102, 103, 103 [5 of 6 alive], 104, 105 (2×), 106, 109 % of control; survivor count [4]: 3 of 3 and 6 of 6; T/C [5]: 87, 87 [5 of 6 alive], 88, 91, 91 [4 of 6 alive], 92, 93, 94, 94 [5 of 6 alive], 95, 96 (2×), 97 (2×), 98 (2×), 99 (2×), 100 (3×), 101 (3×), 102, 104 (2×), 105, 106, 107, 109 % of control; survivor count [5]: 6 of 6; T/C (dose: 100.0 mg/kg/injection, schedule: Q01DX005 (ip), vehicle: saline with Tween-80): 88, 89, 90, 92, 93 (2×), 94, 95 [5 of 6 alive], 96, 97 (2×), 98 (2×), 100 (2×), 101 (3×), 101 [5 of 6 alive], 102 (3×), 104, 105, 108, 110 (2×), 111, 111 [2 of 3 alive], 112 (3×), 112 [2 of 3 alive], 113, 117, 124 % of control; T/C [6]: 93 (2×), 95 (3×), 96 (2×), 98, 100 (3×), 102 (3×), 103 (2×), 104 (2×), 105 [2 of 3 alive], 106, 107, 108 (4×), 110, 113, 119, 121, 122, 122 [5 of 6 alive], 123 % of control; survivor count [6]: 3 of 3 and 6 of 6; T/C (dose: 100.0 mg/kg/injection, schedule: Q04DX002 (ip), vehicle: saline with Tween-80): 87, 90, 91, 92 (3×), 93 (2×), 93 [5 of 6 alive], 94 (2×), 95, 98 (2×), 99 (2×), 100 (4×), 101, 102 (3×), 104 (3×), 106 (2×), 107, 109, 110, 112, 114, 116 % of control; T/C [7]: 86, 87 [5 of 6 alive], 88, 91, 92, 94, 95 (2×), 96 (2×), 97, 98 (2×), 99 (2×), 100 (3×), 100 [2 of 3 alive], 101 (4×), 102 (2×), 103 (2×), 104 (3×), 105 (2×), 110, 118, 122 % of control; survivor count [7]: 3 of 3 and 6 of 6; T/C [8]: 89 [5 of 6 alive], 90, 90 [5 of 6 alive], 91, 91 [5 of 6 alive] (2×), 92 (2×), 93 [2 of 3 alive], 93 [5 of 6 alive], 96 (2×), 97, 98, 99, 99 [2 of 3 alive], 100 (10×), 103, 105, 108, 115, 115 % of control [2 of 3 alive]; survivor count [8]: 6 of 6; T/C [9]: 86 [2 of 3 alive], 87, 89 (2×), 92 [5 of 6 alive], 93 (2×), 95 [4 of 6 alive], 96, 96 [2 of 3 alive], 97 [5 of 6 alive], 98, 98 [5 of 6 alive], 99, 99 [5 of 6 alive], 101 (3×), 103 [5 of 6 alive], 104, 105, 106 (2×), 107, 110 (2×), 111 (3×), 112, 112 [2 of 3 alive], 117, 118, 127 % of control; survivor count [9]: 3 of 6 and 2 of 3; T/C [10]: 87 [5 of 6 alive], 90 [2 of 3 alive], 91 [4 of 6 alive], 92, 93 (2×), 93 [5 of 6 alive], 97 [2 of 3 alive], 98, 99, 99 [2 of 3 alive], 100 (3×), 101 [4 of 6 alive], 101 [5 of 6 alive], 104, 105, 106 [2 of 3 alive], 107 [5 of 6 alive], 108 [5 of 6 alive], 109, 113, 113 [5 of 6 alive], 117 (2×), 117 [5 of 6 alive], 122, 140 % of control; survivor count [10]: 2 of 3 and 6 of 6; T/C [11]: 86, 89, 90 (2×), 93 (3×), 94, 94 [5 of 6 alive], 95 (3×), 95 [5 of 6 alive], 97, 97 [2 of 3 alive], 99, 99 [5 of 6 alive], 100 (4×), 100 [2 of 3 alive], 101, 104 (2×), 105 (2×), 107, 112, 114 [5 of 6 alive], 117, 120, 125 % of control; survivor count [11]: 1 of 3 and 3 of 3; T/C [12]: 86, 88, 88 [4 of 6 alive], 89, 90 (2×), 91, 93, 94, 94 [5 of 6 alive], 95, 96 (2×), 97, 98 (2×), 99 (2×), 100 (5×), 101, 102 (2×), 105, 107, 108 [2 of 3 alive], 109, 115, 128 % of control; survivor count [12]: 2 of 3, 5 of 6, 3 of 3, 6 of 6; T/C [13]: 92 [4 of 6 alive], 92 [5 of 6 alive], 95 [2 of 3 alive], 95 [5 of 6 alive], 96, 97 [5 of 6 alive], 98, 98 [2 of 3 alive], 98 [4 of 6 alive], 99, 100 [5 of 6 alive] (2×), 101, 102, 102 [4 of 6 alive], 109, 113 (2×), 115 % of control [2 of 3 alive]; survivor count [13]: 0 of 3, 0 of 6, 1 of 3, 2 of 6, 3 of 6, 4 of 6; T/C [14]: 94, 97, 97 [5 of 6 alive], 100, 104 [5 of 6 alive], 106 [5 of 6 alive], 107 [2 of 3 alive], 113 [5 of 6 alive], 117 % of control [2 of 3 alive]; survivor count [14]: 0 of 3, 0 of 6, 1 of 6, 1 of 3, 2 of 6, 3 of 6; T/C [15]: 89, 89 [2 of 3 alive], 98, 105 [5 of 6 alive], 107, 108 % of control [5 of 6 alive]; survivor count [15]: 0 of 3, 0 of 6, 1 of 6, 1 of 3, 2 of 6, 3 of 6, 2 of 3, 5 of 6; T/C [16]: 88 [2 of 3 alive], 90 [2 of 3 alive] (2×), 91 [5 of 6 alive], 93 [2 of 3 alive], 97 [2 of 3 alive] (2×), 99, 99 [5 of 6 alive], 100 (3×), 100 [2 of 3 alive], 100 [4 of 6 alive], 100 [5 of 6 alive] (2×), 102, 103, 105 [4 of 6 alive], 106 % of control [4 of 6 alive]; survivor count [16]: 0 of 3, 0 of 6, 1 of 6, 1 of 3, 2 of 6, 3 of 6, 2 of 3, 4 of 6; T/C [17]: 86 [2 of 3 alive], 87 [5 of 6 alive], 88, 90 [5 of 6 alive], 91 [4 of 6 alive], 94, 95, 96 [2 of 3 alive], 98, 100 (3×), 101 [5 of 6 alive] (2×), 106 [2 of 3 alive], 108, 119 % of control [2 of 3 alive]; survivor count [17]: 0 of 3, 1 of 6, 1 of 3, 2 of 6, 3 of 6, 2 of 3, 4 of 6, 3 of 3, 6 of 6

With COc1ccc2c(c1)CCC1=C2C=C[P+]1(C)C as the molecule, how does the survivor count [6] read?
Its survivor count is 0 of 6.

And the survivor count [10]?
The survivor count was 0 of 6.

What does the source list for CCNC(=O)OCc1c(COC(=O)NCC)c(-c2ccc(Cl)c(Cl)c2)n2c1CCC2?
T/C (dose: 5.0 mg/kg/injection, schedule: Q01DX009 (ip), vehicle: distilled water + Tween-80): 145 % of control; T/C (dose: 25.0 mg/kg/injection, schedule: Q01DX009 (ip), vehicle: saline with Tween-80): 127 % of control; survivor count (dose: 40.0 mg/kg/injection, schedule: Q01DX009 (ip), vehicle: distilled water + Tween-80): 6 of 6; survivor count [2]: 3 of 6; survivor count [6]: 2 of 6; survivor count [10]: 0 of 6; survivor count [15]: 0 of 6

For CCOc1cc2c(cc1OC)c[n+](C)c1c3cc(OC)c(OC)cc3ccc21, which T/C (dose: 5.0 mg/kg/injection, schedule: Q01DX009 (ip), vehicle: water) is on record?
Its T/C is 125 % of control [2 of 3 alive].

And the T/C (dose: 20.0 mg/kg/injection, schedule: Q01DX009 (ip), vehicle: water)?
The T/C was 137 % of control.

What about the T/C (dose: 40.0 mg/kg/injection, schedule: Q01DX009 (ip), vehicle: water) of the same molecule?
Its T/C is 133 % of control.

What about the T/C (dose: 80.0 mg/kg/injection, schedule: Q01DX009 (ip), vehicle: water) of the same molecule?
Its T/C is 137 % of control.
